Laboratory results from PubChem BioAssay AID1671190 (National Center for Advancing Translational Sciences (NCATS), 2021).
In all, about 580,000 compounds went through this assay and about 6,100 (1.1%) were called active. The inconclusive results got no clear call from the source; some entries with a clear call stand among them for comparison. Calls follow the shape of the dose curve; as a rule, active = well fitted inhibition curve with a large enough effect; inconclusive = small, poorly fitted or top-dose-only effect, or another doubt; inactive = no such curve, though single readings can be large or run the other way. Where the call is inconclusive, the potency comes from a doubtful curve fit.

Sequences of proteins named here, by UniProt entry; tags and fusion partners are left off.
UniProt P18054, whole entry, looked up: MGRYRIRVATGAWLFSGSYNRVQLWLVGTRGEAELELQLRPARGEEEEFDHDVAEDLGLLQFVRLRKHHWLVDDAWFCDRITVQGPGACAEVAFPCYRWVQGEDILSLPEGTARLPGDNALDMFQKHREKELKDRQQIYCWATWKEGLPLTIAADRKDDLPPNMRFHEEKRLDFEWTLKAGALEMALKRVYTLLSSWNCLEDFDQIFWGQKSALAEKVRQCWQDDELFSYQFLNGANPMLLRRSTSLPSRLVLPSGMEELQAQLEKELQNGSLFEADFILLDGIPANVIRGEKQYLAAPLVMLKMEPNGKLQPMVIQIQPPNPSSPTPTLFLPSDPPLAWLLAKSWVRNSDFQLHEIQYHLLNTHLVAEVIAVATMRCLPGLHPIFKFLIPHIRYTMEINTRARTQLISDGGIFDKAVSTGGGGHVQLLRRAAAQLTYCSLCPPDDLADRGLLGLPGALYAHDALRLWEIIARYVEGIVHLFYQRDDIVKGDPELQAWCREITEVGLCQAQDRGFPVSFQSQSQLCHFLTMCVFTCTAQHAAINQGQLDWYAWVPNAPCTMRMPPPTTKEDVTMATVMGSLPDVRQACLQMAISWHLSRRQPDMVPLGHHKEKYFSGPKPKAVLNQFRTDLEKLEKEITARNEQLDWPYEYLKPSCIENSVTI

target: Polyunsaturated fatty acid lipoxygenase ALOX12 (Homo sapiens) (UniProt P18054); experiment: Primary qHTS assay for inhibitors of human arachidonate 12S-lipoxygenase (ALOX12): Round 2; details: purified 12hLO, xylenol orange hydroperoxide absorbance; activity change, negative = inhibition: at 108 µM (top of the series) unless noted
How it was run: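 Hydroperoxide product was detected by ferrous iron/xylenol orange as the 573 to 405 nm absorbance ratio. Arachidonic acid at 40 uM (final) was turned over for 30 min at room temperature by 150 nM human 12hLO, pH 7.0 Hepes buffer, after 15 min compound preincubation.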
% is scaled to controls: 0 for no effect and ±100 for the full control effect; potency is read from the fitted curve at half-maximal effect.

| SMILES | activity change, negative = inhibition | Potency |
| --- | --- | --- |
| CCCc1nnc(NC(=O)CCC(=O)Nc2ccc(Cl)cc2)s1 | inconclusive: -32% [inhibitor] |  |
| C/C(N)=C(/C#N)C(=O)CSc1nc2ccccc2c(=O)n1Cc1ccc(F)cc1 | inactive: 7.93% |  |
| Cc1ccc(Sc2c(C)nn(C(=O)COc3ccc(F)cc3)c2C)cc1 |  | inconclusive: 126 µM [inhibitor, partial curve, poor fit] |
| CCOc1ccc(CNc2cccc(C)c2)cc1 |  | inconclusive: 2.82 µM [inhibitor, full curve, poor fit] |
| CC(=O)c1ccc(C(=O)N(CCc2ccccc2)Cc2ccc(C)s2)s1 |  | inconclusive: 7.94 µM [inhibitor, full curve, poor fit] |
| Cc1c(Cl)cccc1NC(=S)C(=C([O-])c1ccc(Cl)s1)[n+]1ccccc1 |  | inconclusive: 44.7 µM [inhibitor, partial curve, poor fit] |
| CC(C)(C)c1ccccc1OCC(O)CN1CCN(c2ccccn2)CC1 (configuration not stated) |  | inconclusive: 35.5 µM [inhibitor, partial curve, poor fit] |
| CSc1ccccc1NC(=O)/C=C/c1ccncc1 | inactive: -1.14% |  |
| CCNC(=O)c1nnc(C(=O)Nc2cccc(Cl)c2)s1 |  | inconclusive: 44.7 µM [inhibitor, partial curve, poor fit] |
| O=C(Cc1noc(C(=O)NC2CCCCC2)n1)Nc1cccc2ncccc12 | inactive: 10.6% |  |
| COc1ccc(CN2CCC3(Cc4ccccc4CNC3=O)C2)c(O)c1 (configuration not stated) |  | inconclusive: 3.16 µM [inhibitor, full curve] |
| CNC(=O)CSc1nc2ccccc2c(=O)n1-c1cc(OC)ccc1OC | inactive: 8.22% |  |
| CC(=O)N1CCC(N[C@@H]2CC[C@@H]2NC(=O)CCn2nnc3ccccc32)CC1 | inactive: 27.6% |  |
| Cc1cc(C)nc(SCC(=O)N/N=C/c2cccc([N+](=O)[O-])c2)n1 | inactive: -18.6% |  |
| CCCCCC(O)(CCN1CCCCC1)c1ccc(OCC)cc1 (configuration not stated) |  | inconclusive: 44.7 µM [inhibitor, partial curve, poor fit] |
| CC(=O)Nc1ccc(I)cc1C | inactive: -19.6% |  |
| Cc1ccc2nc(SCC(=O)Nc3ccc(C(N)=O)cc3)[nH]c2c1 | inactive: -23.7% |  |
| O=C(NC1CCCC1)C(c1ccccc1)N(Cc1ccco1)C(=O)Cc1cccs1 (configuration not stated) | inactive: 48.9% |  |
| COc1cccc(CNC(=O)c2ccc(NS(=O)(=O)c3ccc4[nH]c(=O)[nH]c4c3)cc2)c1 |  | inconclusive: 126 µM [inhibitor, single point] |
| CCN1C/C(=C\c2cccc([N+](=O)[O-])c2)C(=O)/C(=C/c2cccc([N+](=O)[O-])c2)C1 | inactive: -29.8% |  |
| O=C(Nc1cc2c(oc1=O)CCCC2=O)c1ccc(Cl)cc1 | inactive: -25.1% |  |
| COc1ccc(C(C(=O)NC2CCCC2)N(C(=O)c2snc(-c3ccc(F)cc3)c2N)c2ccc(OC)cc2)cc1 (configuration not stated) | inactive: -24.9% |  |
| Cc1ccc(-c2nc3ccc(Br)cn3c2Cc2cccc(Cl)c2)cc1 |  | inconclusive: 50.1 µM [inhibitor, partial curve, poor fit] |
| CC(=O)N1CCN(c2nc3c(s2)CC(C(=O)NCC2CCCCC2)CC3)CC1 (configuration not stated) | inactive: 35.8% |  |

Two entries from above, bar-delimited:
SMILES | activity change, negative = inhibition | Potency
CNC(=O)CSc1nc2ccccc2c(=O)n1-c1cc(OC)ccc1OC | inactive: 8.22% | 
CC(=O)N1CCC(N[C@@H]2CC[C@@H]2NC(=O)CCn2nnc3ccccc32)CC1 | inactive: 27.6% | 

(next part)

| SMILES | activity change, negative = inhibition | Potency |
| --- | --- | --- |
| CCOC(=O)c1nc(C)sc1-c1ccnn1S(=O)(=O)c1cccc(Cl)c1 | inactive: 0% |  |
| O=C(Nc1cccn(Cc2ccccc2Cl)c1=O)NC1CCCCC1 |  | inconclusive: 79.4 µM [inhibitor, partial curve, poor fit] |
| CC(C)CCn1nc(C(=O)OCC(=O)NC(C)c2ccccc2)c2ccccc2c1=O (configuration not stated) |  | inconclusive: 89.1 µM [inhibitor, partial curve, poor fit] |
| O=S(=O)(c1ccccc1)c1nc(Nc2cccc(O)c2)sc1Cl |  | active: 35.5 µM |
| CSC(=NC#N)N1CCN(c2ccc([N+](=O)[O-])cc2)CC1 |  | inconclusive: 70.8 µM [inhibitor, partial curve, poor fit] |
| CCCCn1c(=N)n(CC(=O)c2ccc(OC)cc2)c2ccccc21 |  | inconclusive: 50.1 µM [inhibitor, single point] |
| CC(C)OCc1ccc(C(=O)Nc2cccc(OC(F)(F)F)c2)cc1 | inactive: -7.97% |  |
| C/C(CC(=O)Nc1cc(Cl)cc(Cl)c1)=N\NC(=O)c1cccnc1 | inactive: 6.43% |  |
| CCN(c1ccc(NC(=O)c2cnc3ccccc3n2)cc1)C(C)C | inactive: -1.28% |  |
| NS(=O)(=O)c1ccc(N2N=C(c3ccccc3)CCC2=O)cc1 | inactive: -1.98% |  |
| CSc1ccc(/C=C(/C#N)S(=O)(=O)c2ccc(C)cc2)cc1 | inactive: -28.8% |  |
| CCOP(=O)(OCC)C(NC(=O)C(F)(F)F)c1ccccc1 (configuration not stated) |  | inconclusive: 6.31 µM [inhibitor, partial curve, poor fit] |
| NCc1ccc(-c2cccc(C(F)(F)F)c2)cc1 | inactive: -2.73% [at 12.5 µM] |  |
| CN(CC(=O)NC(=O)NC(C)(C)C)c1ccccc1 |  | inconclusive: 50.1 µM [inhibitor, single point] |
| Clc1ccc(-c2cc3ccccn3c2)cc1 |  | active: 3.98 µM |
| Cc1ccc(-n2ncc3c(=O)[nH]c(SCC(=O)Nc4ccc5c(c4)OCO5)nc32)cc1C |  | inconclusive: 8.91 µM [inhibitor, partial curve, poor fit] |
| COc1ccccc1NS(=O)(=O)c1cc(NC(=O)c2sccc2C)ccc1N1CCCC1 | inactive: -12.6% |  |
| O=C(Nc1ccc(Cl)c(C(F)(F)F)c1)c1ccccc1 |  | inconclusive: 22.4 µM [inhibitor, full curve, poor fit] |
| COc1ccc(-c2nc3c4ccccc4ccn3c2Cc2ccsc2)cc1OC |  | inconclusive: 79.4 µM [inhibitor, partial curve, poor fit] |
| CCOc1ccc(NC(=O)Cn2c(Nc3ccc(F)c(C)c3)nc(C)cc2=O)cc1 |  | inconclusive: 50.1 µM [inhibitor, partial curve, poor fit] |
| Oc1ccccc1NCC(O)Cn1ccc2ccccc21 (configuration not stated) |  | inconclusive: 44.7 µM [inhibitor, partial curve, poor fit] |
| COc1ccc(CNC(=O)C2(C)CCCCC(=O)N2)cc1OC (configuration not stated) | inactive: 3.6% |  |
| COC(=O)[C@]12CCCCC=C1N(Cc1ccccc1)C(=O)[C@H](CC(=O)NCC13CC4CC(CC(C4)C1)C3)C2 |  | inconclusive: 112 µM [inhibitor, single point] |

Part of the list above, as comma-separated lines.
SMILES,"activity change, negative = inhibition",Potency
CCOC(=O)c1nc(C)sc1-c1ccnn1S(=O)(=O)c1cccc(Cl)c1,inactive: 0%,
O=C(Nc1cccn(Cc2ccccc2Cl)c1=O)NC1CCCCC1,,"inconclusive: 79.4 µM [inhibitor, partial curve, poor fit]"
CC(C)CCn1nc(C(=O)OCC(=O)NC(C)c2ccccc2)c2ccccc2c1=O (configuration not stated),,"inconclusive: 89.1 µM [inhibitor, partial curve, poor fit]"
O=S(=O)(c1ccccc1)c1nc(Nc2cccc(O)c2)sc1Cl,,active: 35.5 µM
CC(C)OCc1ccc(C(=O)Nc2cccc(OC(F)(F)F)c2)cc1,inactive: -7.97%,
CCN(c1ccc(NC(=O)c2cnc3ccccc3n2)cc1)C(C)C,inactive: -1.28%,
CSc1ccc(/C=C(/C#N)S(=O)(=O)c2ccc(C)cc2)cc1,inactive: -28.8%,
CN(CC(=O)NC(=O)NC(C)(C)C)c1ccccc1,,"inconclusive: 50.1 µM [inhibitor, single point]"
Clc1ccc(-c2cc3ccccn3c2)cc1,,active: 3.98 µM
Cc1ccc(-n2ncc3c(=O)[nH]c(SCC(=O)Nc4ccc5c(c4)OCO5)nc32)cc1C,,"inconclusive: 8.91 µM [inhibitor, partial curve, poor fit]"
COc1ccccc1NS(=O)(=O)c1cc(NC(=O)c2sccc2C)ccc1N1CCCC1,inactive: -12.6%,
O=C(Nc1ccc(Cl)c(C(F)(F)F)c1)c1ccccc1,,"inconclusive: 22.4 µM [inhibitor, full curve, poor fit]"
CCOc1ccc(NC(=O)Cn2c(Nc3ccc(F)c(C)c3)nc(C)cc2=O)cc1,,"inconclusive: 50.1 µM [inhibitor, partial curve, poor fit]"
COc1ccc(CNC(=O)C2(C)CCCCC(=O)N2)cc1OC (configuration not stated),inactive: 3.6%,
